Among the data in patent CN101309933A are binding values, retold here.

Sequences of proteins named here, by UniProt entry; tags and fusion partners are left off. Residues count along the entry.
UniProt D3ZBN3, residues 23-977: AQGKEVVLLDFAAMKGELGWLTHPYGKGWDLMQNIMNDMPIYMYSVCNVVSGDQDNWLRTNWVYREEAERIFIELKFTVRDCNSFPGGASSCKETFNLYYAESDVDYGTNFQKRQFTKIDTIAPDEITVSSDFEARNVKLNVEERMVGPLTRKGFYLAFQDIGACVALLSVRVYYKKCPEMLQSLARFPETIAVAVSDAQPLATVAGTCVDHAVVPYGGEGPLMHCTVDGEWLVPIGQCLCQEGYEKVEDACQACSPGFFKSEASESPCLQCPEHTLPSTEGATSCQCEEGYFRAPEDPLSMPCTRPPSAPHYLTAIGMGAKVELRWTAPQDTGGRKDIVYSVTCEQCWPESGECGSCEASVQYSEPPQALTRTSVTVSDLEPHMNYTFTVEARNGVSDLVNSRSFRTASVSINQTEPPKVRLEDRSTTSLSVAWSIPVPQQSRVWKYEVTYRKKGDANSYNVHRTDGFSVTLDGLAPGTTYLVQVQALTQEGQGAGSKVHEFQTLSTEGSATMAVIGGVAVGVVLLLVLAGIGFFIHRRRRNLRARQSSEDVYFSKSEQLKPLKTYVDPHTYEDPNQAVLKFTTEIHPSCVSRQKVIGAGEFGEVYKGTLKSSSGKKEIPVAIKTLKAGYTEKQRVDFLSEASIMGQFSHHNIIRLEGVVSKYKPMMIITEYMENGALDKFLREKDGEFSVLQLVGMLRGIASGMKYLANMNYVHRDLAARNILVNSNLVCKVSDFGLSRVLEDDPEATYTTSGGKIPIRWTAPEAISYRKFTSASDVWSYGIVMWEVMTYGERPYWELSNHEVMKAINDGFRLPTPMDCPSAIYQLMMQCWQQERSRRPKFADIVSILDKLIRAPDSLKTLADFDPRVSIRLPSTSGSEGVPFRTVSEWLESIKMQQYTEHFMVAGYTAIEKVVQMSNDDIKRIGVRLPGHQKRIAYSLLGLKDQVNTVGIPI

This assay deals with 大鼠EphA2 (expressed on cells) (rat) (UniProt D3ZBN3). Put plainly: flow cytometry on cell lines, 1 μg antibody, PE goat anti-human IgG. A general note: Flow cytometry measures light scatter and fluorescence of single cells or particles in a stream.

No constants are given. Whether binding was seen depends on the method and setting. Some entries that bind do so weakly or less than the wild type.

B1: 抗-EphA2抗体3F2 (antibody, V domains shown)
VH: EVQLVESGGGVVRPGGSLRLSCAASGFTVSDYSMNWVRQAPGKGLEWIGFIRNKANAYTTEYSASVKGRFTISRDDSKNTLYLQMNSLKTEDTAVYYCTTYPRYHAMDSWGQGTMVTVSS
VL: AIQLTQSPSSLSASVGDRVTITCRASQSISNNLHWYLQKPGQSPQLLIYYGFQSISGVPSRFSGSGSGTDFTLTISSLQPEDFATYYCQQANSWPLTFGGGTKLEIK
For B1, the binding entry is “binds”.

B2: 抗-EphA2抗体1H3 (antibody, V domains shown)
VH: EVQLLESGGGLVQPGGSLRLSCAASGFTFSMYAMRWVRQAPGKGLEWVSVIGPSGGWTPYADSVKGRFTISRDNSKNTLYLQMNSLRAEDTAVYYCARDRGIYGMDVWGQGTTVTVSS
VL: DIQMTQSPSFLSASVGDRVTITCRASQGISSYLAWYQQKPGKAPKLLIYAASTLQSGVPSRFSGSGSGTEFTLTISSLQPEDFATYYCLELNNYPFTFGLGTKVHIK
B2: the binding entry is “binds”.
